Measured values from the supplement of paper PMC10849652.
The other results are listed elsewhere or left out.

Protein sequences, listed by entry. Tags and fused reporters are not part of them. Lines headed by an entry give the natural chain unless they say otherwise; changes in a name come on top.
UniProt P09486: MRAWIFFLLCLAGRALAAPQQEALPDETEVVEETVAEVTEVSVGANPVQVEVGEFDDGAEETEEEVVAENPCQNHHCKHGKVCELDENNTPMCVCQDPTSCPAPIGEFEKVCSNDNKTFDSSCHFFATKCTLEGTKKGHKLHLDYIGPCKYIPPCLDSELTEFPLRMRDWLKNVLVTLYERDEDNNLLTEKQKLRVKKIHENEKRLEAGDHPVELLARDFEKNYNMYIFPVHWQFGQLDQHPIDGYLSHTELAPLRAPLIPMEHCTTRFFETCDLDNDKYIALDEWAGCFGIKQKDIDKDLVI
UniProt P11277, whole entry, looked up: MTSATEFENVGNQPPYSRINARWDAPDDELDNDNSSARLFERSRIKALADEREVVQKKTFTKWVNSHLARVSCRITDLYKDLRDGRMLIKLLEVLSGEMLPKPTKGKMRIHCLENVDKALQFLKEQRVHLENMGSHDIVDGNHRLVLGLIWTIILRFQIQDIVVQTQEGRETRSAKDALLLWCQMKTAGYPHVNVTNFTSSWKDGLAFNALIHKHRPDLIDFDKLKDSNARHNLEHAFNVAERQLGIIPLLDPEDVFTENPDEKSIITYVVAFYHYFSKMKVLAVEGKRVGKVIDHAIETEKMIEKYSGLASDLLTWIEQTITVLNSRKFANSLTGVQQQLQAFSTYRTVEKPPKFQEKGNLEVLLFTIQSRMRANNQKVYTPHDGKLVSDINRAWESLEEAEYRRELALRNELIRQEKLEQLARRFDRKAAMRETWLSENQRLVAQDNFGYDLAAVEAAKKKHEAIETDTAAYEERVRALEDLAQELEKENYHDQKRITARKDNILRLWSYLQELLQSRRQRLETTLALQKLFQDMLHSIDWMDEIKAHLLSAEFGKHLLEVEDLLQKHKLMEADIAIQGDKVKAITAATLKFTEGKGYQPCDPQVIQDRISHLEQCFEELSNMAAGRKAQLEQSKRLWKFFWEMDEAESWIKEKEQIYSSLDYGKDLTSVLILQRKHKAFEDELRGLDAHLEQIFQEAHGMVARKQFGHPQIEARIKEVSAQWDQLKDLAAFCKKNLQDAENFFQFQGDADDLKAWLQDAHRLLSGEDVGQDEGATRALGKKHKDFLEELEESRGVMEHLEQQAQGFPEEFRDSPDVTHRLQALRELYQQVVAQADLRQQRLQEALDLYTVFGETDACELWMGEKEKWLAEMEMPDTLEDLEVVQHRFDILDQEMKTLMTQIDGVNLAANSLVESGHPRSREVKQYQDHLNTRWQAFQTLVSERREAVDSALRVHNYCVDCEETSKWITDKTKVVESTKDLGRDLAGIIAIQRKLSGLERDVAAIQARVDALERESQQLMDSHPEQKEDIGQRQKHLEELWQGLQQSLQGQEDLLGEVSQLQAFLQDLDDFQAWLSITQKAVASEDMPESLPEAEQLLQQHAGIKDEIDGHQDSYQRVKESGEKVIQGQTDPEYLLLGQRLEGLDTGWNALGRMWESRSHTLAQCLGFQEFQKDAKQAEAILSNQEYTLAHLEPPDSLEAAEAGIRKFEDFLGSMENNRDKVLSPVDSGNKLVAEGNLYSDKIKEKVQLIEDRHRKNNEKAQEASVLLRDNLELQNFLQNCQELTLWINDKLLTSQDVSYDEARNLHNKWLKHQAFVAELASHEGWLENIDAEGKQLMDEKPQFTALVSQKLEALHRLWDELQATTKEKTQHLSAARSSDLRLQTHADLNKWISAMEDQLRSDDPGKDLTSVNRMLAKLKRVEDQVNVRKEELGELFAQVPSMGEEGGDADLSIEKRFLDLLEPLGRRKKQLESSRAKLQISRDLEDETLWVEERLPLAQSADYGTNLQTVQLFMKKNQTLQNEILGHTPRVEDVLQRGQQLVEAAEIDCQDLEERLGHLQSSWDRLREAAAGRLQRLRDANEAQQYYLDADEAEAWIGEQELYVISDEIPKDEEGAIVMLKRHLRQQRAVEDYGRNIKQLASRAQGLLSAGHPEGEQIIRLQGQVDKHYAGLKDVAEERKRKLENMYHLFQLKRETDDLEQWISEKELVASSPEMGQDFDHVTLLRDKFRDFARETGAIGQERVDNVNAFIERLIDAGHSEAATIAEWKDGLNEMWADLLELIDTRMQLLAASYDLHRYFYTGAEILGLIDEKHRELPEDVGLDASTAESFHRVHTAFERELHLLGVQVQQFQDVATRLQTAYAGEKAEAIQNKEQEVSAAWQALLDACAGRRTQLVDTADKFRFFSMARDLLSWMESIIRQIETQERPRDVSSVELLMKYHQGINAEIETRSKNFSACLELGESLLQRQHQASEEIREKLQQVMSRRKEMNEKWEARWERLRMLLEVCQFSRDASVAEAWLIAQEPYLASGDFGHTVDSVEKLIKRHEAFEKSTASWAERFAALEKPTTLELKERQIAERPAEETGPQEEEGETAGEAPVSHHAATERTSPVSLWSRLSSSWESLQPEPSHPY
UniProt Q92783: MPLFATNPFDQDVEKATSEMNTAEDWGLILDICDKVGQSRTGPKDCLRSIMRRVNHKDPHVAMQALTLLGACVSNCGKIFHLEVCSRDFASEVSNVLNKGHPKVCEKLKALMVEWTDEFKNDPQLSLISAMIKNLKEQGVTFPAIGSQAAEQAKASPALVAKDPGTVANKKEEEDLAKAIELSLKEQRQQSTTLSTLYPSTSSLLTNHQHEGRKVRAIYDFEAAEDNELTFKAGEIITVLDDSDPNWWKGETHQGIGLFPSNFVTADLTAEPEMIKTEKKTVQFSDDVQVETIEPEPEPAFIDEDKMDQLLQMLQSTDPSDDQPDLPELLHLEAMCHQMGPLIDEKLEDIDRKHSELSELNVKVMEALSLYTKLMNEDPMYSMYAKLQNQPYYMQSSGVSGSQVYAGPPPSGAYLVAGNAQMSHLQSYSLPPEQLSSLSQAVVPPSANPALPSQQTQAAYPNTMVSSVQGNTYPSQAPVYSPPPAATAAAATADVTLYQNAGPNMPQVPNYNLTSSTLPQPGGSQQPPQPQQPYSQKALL
UniProt O43805: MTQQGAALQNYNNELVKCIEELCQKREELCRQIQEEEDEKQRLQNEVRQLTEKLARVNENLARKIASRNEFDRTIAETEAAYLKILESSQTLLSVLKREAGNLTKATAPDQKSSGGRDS
UniProt P61009: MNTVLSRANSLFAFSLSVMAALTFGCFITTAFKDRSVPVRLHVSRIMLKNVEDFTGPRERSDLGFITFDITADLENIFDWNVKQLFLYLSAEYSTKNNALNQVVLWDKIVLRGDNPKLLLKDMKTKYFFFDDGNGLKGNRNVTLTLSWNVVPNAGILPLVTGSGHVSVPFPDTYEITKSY
UniProt Q5W111: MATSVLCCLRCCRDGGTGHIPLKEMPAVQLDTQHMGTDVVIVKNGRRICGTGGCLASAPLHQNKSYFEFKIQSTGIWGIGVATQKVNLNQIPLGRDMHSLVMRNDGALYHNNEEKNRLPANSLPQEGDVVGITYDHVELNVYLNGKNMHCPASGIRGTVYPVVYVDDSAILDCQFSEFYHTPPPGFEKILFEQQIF
UniProt Q9NRC1: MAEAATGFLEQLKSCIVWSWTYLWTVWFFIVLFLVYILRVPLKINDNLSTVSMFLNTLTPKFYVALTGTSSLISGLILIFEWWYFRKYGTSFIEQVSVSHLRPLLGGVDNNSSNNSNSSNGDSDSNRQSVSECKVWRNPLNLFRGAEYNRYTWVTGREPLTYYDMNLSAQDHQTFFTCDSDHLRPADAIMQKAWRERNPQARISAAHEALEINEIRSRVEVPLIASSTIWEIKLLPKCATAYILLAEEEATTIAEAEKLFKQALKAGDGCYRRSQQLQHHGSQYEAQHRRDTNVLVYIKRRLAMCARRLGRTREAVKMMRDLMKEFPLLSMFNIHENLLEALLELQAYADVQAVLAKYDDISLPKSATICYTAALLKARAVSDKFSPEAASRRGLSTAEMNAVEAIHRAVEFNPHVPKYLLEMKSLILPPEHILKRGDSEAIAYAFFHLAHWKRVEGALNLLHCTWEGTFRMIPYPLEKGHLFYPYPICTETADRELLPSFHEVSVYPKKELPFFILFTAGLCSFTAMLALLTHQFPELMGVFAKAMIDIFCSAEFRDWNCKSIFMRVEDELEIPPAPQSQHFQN
UniProt O15020, whole entry, looked up: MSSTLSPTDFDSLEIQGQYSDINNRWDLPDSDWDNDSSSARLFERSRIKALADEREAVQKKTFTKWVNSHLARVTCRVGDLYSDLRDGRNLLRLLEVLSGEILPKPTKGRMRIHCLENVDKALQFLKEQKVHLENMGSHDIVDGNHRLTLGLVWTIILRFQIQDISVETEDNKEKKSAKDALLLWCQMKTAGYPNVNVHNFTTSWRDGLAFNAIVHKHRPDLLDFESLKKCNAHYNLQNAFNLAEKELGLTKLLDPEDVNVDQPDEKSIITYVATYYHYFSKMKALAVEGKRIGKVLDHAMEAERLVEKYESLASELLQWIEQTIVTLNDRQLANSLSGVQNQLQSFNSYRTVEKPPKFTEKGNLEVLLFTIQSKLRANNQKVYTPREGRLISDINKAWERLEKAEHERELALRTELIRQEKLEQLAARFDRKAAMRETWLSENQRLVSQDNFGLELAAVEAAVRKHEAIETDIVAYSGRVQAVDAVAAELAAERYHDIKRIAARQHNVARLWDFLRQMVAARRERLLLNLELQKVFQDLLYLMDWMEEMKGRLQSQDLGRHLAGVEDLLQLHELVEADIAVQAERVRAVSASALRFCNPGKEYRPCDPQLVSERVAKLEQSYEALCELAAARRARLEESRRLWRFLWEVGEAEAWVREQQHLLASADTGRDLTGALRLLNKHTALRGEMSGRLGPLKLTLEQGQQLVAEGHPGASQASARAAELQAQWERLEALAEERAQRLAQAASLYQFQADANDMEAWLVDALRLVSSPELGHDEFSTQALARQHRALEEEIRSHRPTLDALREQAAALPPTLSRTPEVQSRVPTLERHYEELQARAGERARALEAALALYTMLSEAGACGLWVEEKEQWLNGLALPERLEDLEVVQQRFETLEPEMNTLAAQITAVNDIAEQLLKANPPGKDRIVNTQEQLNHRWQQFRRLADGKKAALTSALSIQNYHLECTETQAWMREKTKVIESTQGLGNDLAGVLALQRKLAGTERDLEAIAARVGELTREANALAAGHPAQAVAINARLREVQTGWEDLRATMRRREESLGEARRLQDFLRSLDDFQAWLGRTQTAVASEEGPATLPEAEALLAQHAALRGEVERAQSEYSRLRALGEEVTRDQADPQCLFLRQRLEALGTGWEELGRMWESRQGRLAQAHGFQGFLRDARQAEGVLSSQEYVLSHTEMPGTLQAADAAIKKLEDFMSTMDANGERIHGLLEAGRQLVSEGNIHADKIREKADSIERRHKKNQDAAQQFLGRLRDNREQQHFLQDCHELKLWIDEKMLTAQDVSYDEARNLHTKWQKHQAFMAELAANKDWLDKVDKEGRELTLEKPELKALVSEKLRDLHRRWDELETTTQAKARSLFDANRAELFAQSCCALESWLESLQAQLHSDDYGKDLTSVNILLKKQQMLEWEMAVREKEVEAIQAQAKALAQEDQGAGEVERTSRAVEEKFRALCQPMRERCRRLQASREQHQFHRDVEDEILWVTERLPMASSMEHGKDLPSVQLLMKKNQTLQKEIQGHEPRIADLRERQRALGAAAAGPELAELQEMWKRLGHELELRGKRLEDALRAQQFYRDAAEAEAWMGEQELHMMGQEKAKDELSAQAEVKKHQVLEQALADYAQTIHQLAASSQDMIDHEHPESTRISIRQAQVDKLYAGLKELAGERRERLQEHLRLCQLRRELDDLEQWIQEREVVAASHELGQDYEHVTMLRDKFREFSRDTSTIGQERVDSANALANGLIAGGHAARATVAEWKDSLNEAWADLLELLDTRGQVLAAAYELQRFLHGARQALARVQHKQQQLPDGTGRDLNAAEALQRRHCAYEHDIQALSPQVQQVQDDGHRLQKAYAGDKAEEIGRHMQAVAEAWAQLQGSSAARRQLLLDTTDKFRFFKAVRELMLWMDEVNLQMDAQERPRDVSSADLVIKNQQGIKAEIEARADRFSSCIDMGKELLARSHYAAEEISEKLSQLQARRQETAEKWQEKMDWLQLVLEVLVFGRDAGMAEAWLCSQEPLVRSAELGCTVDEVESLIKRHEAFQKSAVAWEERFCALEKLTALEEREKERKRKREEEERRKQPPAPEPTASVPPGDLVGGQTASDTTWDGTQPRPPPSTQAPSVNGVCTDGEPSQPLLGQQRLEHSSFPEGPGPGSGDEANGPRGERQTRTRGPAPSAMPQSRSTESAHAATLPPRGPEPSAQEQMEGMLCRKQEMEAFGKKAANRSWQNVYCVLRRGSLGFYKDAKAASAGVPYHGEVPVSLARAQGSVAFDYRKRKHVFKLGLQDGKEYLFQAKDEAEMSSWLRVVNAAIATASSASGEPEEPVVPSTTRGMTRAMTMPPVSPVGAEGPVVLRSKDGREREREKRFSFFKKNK
UniProt P37108: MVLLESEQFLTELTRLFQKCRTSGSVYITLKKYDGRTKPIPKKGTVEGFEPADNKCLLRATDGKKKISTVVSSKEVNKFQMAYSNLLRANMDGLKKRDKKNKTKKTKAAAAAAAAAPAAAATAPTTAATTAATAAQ

These targets were tested with Cc1nc(Nc2ncc(C(=O)Nc3c(C)cccc3Cl)s2)cc(N2CCN(CCO)CC2)n1 [dasatinib] (assay: log2 fold change, soluble protein after heating vs DMSO (PISA); higher = thermal stabilisation; K562 cells, 10 uM, 30 min; active = over 0.2 and 3.5 SD of the protein, either way, in both replicates (recomputed)).
Summary of the method: (§1)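 Soluble protein was defined as the supernatant after 21,000xg for 90 min. It came from K562 cells at 2×10^6 cells/mL given 10 μM compound for 30 min, heated in aliquots for 3 min across 48°C-58°C, pooled, and extracted in PBS with 0.5% NP-40 at 4°C, and was quantified by TMTpro 16plex LC-MS/MS with equalised channel sums. Thermal stability against control samples, from duplicates, is reported as log2 fold change.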

log2 fold change, inactive:
STAG2 (UniProt Q8N3U4) -0.055
SQLE (UniProt Q14534) 0
SPARC (UniProt P09486) -0.028
SPTB isoform 2 (UniProt P11277) -0.066
STAM (UniProt Q92783) 0.035
SSNA1 (UniProt O43805) 0.04
SPNS1 (UniProt Q9H2V7) 0.017
SPCS3 (UniProt P61009) 0.037
SPRYD7 (UniProt Q5W111) -0.024
ST7 (UniProt Q9NRC1) 0.001
SPTBN2 (UniProt O15020) -0.092
SPIN1 (UniProt Q9Y657) 0.036
SPCS1, A0A5F9YFS9 -0.09
ST13 (UniProt P50502) -0.074

Each target was assayed with Cc1ncc(-c2ccnc(Nc3ccc(S(C)(=O)=O)cc3)n2)n1C(C)C in the same assay as above.
Summary of the method: as §1

log2 fold change, inactive:
SSBP1 (UniProt Q04837) -0.009
STAMBP (UniProt O95630) 0.094
SPC25 (UniProt Q9HBM1) 0.022
SRRM1 (UniProt Q8IYB3) -0.039
SSR1 (UniProt P43307) -0.021
SRRT (UniProt Q9BXP5) 0.01
STK11 (UniProt Q15831) 0.001
SPTA1 (UniProt P02549) -0.031
SPTAN1 isoform 2 (UniProt Q13813) 0
SRP9 (UniProt P49458) -0.01
SPN (UniProt P16150) -0.023
SPTLC2 (UniProt O15270) 0.022
SRGN (UniProt P10124) -0.015
SRPK1 (UniProt Q96SB4) 0.001
SPG7 (UniProt Q9UQ90) -0.008
SRP19 (UniProt P09132) 0.041
SPRY4 (UniProt Q9C004) 0.023
SPC24 (UniProt Q8NBT2) -0.005
STAU1 (UniProt O95793) -0.006
SRP14 (UniProt P37108) -0.023
SRSF5 (UniProt Q13243) -0.004
SRM (UniProt P19623) -0.042
STIP1 isoform 2 (UniProt P31948) 0.006
SPATA5 (UniProt Q8NB90) 0.055
STAG2 (UniProt Q8N3U4) -0.057
SQLE (UniProt Q14534) 0.024
SPARC (UniProt P09486) 0.029
SPTB isoform 2 (UniProt P11277) -0.086
STAM (UniProt Q92783) 0.082
SSNA1 (UniProt O43805) -0.003
SPNS1 (UniProt Q9H2V7) 0.021
SPCS3 (UniProt P61009) -0.044
SPRYD7 (UniProt Q5W111) -0.017
ST7 (UniProt Q9NRC1) 0.037
SPTBN2 (UniProt O15020) 0.08
SPIN1 (UniProt Q9Y657) 0.047
SPCS1, A0A5F9YFS9 0.003
ST13 (UniProt P50502) -0.011

Each target was assayed with Cn1cc(-c2ccc3c(c2)CCN3C(=O)Cc2cccc(C(F)(F)F)c2)c2c(N)ncnc21 in the same assay as above.
Summary of the method: as §1

log2 fold change, inactive:
SSBP1 (UniProt Q04837) -0.038
STAMBP (UniProt O95630) -0.032
SPC25 (UniProt Q9HBM1) 0.021
SRRM1 (UniProt Q8IYB3) -0.077
SSR1 (UniProt P43307) 0.007
SRRT (UniProt Q9BXP5) 0.129
STK11 (UniProt Q15831) -0.009
SPTA1 (UniProt P02549) -0.139
SPTAN1 isoform 2 (UniProt Q13813) 0.118
SRP9 (UniProt P49458) -0.231
SPN (UniProt P16150) 0.037
SPTLC2 (UniProt O15270) 0.043
SRGN (UniProt P10124) -0.056
SRPK1 (UniProt Q96SB4) -0.301
SPG7 (UniProt Q9UQ90) 0.002
SRP19 (UniProt P09132) -0.13
SPRY4 (UniProt Q9C004) 0.014
SPC24 (UniProt Q8NBT2) 0.001
STAU1 (UniProt O95793) -0.344
SRP14 (UniProt P37108) -0.295
SRSF5 (UniProt Q13243) -0.239
SRM (UniProt P19623) 0.061
STIP1 isoform 2 (UniProt P31948) 0.026
SPATA5 (UniProt Q8NB90) -0.004
STAG2 (UniProt Q8N3U4) 0.033
SQLE (UniProt Q14534) 0.123
SPARC (UniProt P09486) -0.011
SPTB isoform 2 (UniProt P11277) -0.114
STAM (UniProt Q92783) 0.038
SSNA1 (UniProt O43805) 0.037
SPNS1 (UniProt Q9H2V7) 0.03
SPCS3 (UniProt P61009) 0.017
SPRYD7 (UniProt Q5W111) 0.046
ST7 (UniProt Q9NRC1) -0.055
SPTBN2 (UniProt O15020) 0.132
SPIN1 (UniProt Q9Y657) -0.056
SPCS1, A0A5F9YFS9 0.19
ST13 (UniProt P50502) 0.05
